Changes are numbered by the printed parent chain. No constants are given. Whether binding was seen depends on the method and setting. Some results given as binding are weak or reduced against the parent protein; the word gives no strength.

This experiment deals with T1, B7H3-hFc (UniProt Q5ZPR3 29-466, limits assumed).
T1 construct: Construct limits, linker and Fc not described; also called B7H3-hFc protein; not shown: human Fc (hFc)
T1 sequence (looked up): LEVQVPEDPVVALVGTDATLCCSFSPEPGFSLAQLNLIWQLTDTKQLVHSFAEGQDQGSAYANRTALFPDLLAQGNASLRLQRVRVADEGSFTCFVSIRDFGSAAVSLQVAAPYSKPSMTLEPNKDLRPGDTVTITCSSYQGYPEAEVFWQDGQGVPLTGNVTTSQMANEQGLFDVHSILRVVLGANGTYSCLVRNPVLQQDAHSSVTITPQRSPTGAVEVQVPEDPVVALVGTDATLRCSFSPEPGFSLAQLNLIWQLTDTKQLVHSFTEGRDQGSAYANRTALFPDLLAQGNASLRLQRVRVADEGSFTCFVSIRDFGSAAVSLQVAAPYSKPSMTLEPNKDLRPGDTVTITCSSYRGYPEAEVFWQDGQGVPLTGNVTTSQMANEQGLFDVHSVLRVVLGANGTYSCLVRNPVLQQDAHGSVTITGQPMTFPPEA
The experiment in a line: ELISA, B7H3-hFc. (In general: An ELISA detects its analyte on a solid surface through an enzyme-linked reagent.)

B1: 7B7 (antibody, mouse IgG2b, V domains shown)
VH: EVKLVESGGGLVRPGGSLKLSCAASGFTFSSYAVSWVRQTPEKRLEWVASISGGGIYIYYPDSVKGRFTISRDNAKNNLYLQMNSLTPDDTALYYCARHGGAGYFDYWGQGTTLTVSS
VL: DSLMTQSPASLSASVGETVTITCRGSESVHSYLAWYQQKQGKSPQLLVYNAKTLQSGVPSRFSGSGSGTQFSLRINSLQPEDFGTYYCQQHYGSPPWTFGGGTILEIK
notes: Murine hybridoma antibody; also called B7H3 hybridoma monoclonal antibody 7B7
For the molecule B1, the binding result is “binds”.

B2: 5B6 (antibody, mouse IgG1, V domains shown)
VH: QVQLQQSGAELARPGASVKMSCKTSGYTFITYTIHWVKQRPGQGLEWIGYINPTSDYANFNQKFKDKATLTADKSSRTAYMQLSSLTSEDSAVYYCARWGTTVFQFYFDYWGQGTTLTVSS
VL: QIVLSQSPAILSASPGEKVTMTCRASQSLSYINWYQLKPGSSPKPWIYATSSLQSGVPARFSGSASGTSYSLTISRVEAEDAATYFCQHWSSDPPTIGGGTKLEIK
notes: Murine hybridoma antibody; also called B7H3 hybridoma monoclonal antibody 5B6
On to B2, for which the binding result is reported as “binds”.

B3: 15A2 (antibody, mouse IgG1, V domains shown)
VH: QVQLQQSGPEVVKPGALVRISCKASGYTFTSYDINWVKQRPGQGLEWIGWIDPGDGSTKYNEKFKGKATLTADKSSSTAYMQFSSLTSENSAVYFCVRRGFDYWGQGTTLTVSS
VL: QILLTQSPAIMSASPGEKVTMTCRTSSSVSYLHWFQQKPGSSPKLWIHDTSNLASGFPARFSGSGSGTSYSLIISSMEAEDAATYYCHQRSSYPWTFGGGTKLEIK
notes: Murine hybridoma antibody; also called B7H3 hybridoma monoclonal antibody 15A2
For the molecule B3, the binding entry is recorded as “binds”.

B4: 7E6 (antibody, mouse IgG1, V domains shown)
VH: QVQLQQSGPELVRPGVSVKISCKGSGYTFTDYAMHWVKQSHAKSLEWIGVINSYYGNTHYNQKFKGKATMTVDKSSSTAYMELARLTSEDSAIYYCARAGGYSYGSSYRPDRFAYWGQGTLVIVSA
VL: DIQMTQSPASQSASLGESVTITCLASQTIGTWLAWYQQKPGKSPQLLIYAATNLADGVPSRFSGSGSGTKFSFKISSLQAEDFVSYYCQQLYSTPYTFGGGTKLEIK
notes: Murine hybridoma antibody; also called B7H3 hybridoma monoclonal antibody 7E6
For the molecule B4, the binding entry is reported as “binds”.

B5: 7F5 (antibody, mouse IgG1, V domains shown)
VH: EVQLQQSGAELVRPGALVKLSCKTSGFNIKAYYIHWVKQRPEQGLEWIGWIDPENGNTFYDPKFQGKASITADTSSNTAYLQLSSLTSEDAAVYYCTRSSTRLRPFDYWGQGTTLTVSS
VL: DIVMTQAAFSNPVTLGTSASISCRSSKSLLHSNGITYLYWYLQKSGQSPQLLIYQMSNLASGVPDRFSSSGSGTDFTLRISRVEAEDVGVYYCAQNLELYTFGGGTKLEIK
notes: Murine hybridoma antibody purified by protein A; also called B7H3 hybridoma monoclonal antibody 7F5
With B5, the binding result was “binds”.

B6: 7C9 (antibody, mouse IgG1, V domains shown)
VH: EVQLQQSGTELVRPGALVKLSCKASALNIKDFYMHWVKQRPERGLEWIGWIDPDNGNTIYDPKFQGKASITADISSSTAYLQLSSLTSEDTAVYYCARSSTRQRPFDYWGQGTTLTVSS
VL: DIVMTQSHKVMSTSVGDRVSITCKASQDVRTGVAWYQQKPGQSPKLLIYSAFYRYTGVPDRFTVSGSGADFTFTITSVQAEDLAVYYCQQYYSIPWTFGGGTKLEIK
notes: Murine hybridoma antibody; also called B7H3 hybridoma monoclonal antibody 7C9
Regarding B6, the binding entry is “binds”.

B7: 2A9 (antibody, mouse IgG2b, V domains shown)
VH: EVQLQQSGPELVKPGASVKISCKTSGYTFTEYIMHWVKQSRGKSLEWIGGINPNSGGTTYNEKFKGKATLTVDKSASTAYMELRSLTSEDSAIYYCARRMPYWYFDVWGAGTTVTVSS
VL: QIVLTQSPAIMSASPGEKVTMTCSASSSVSYIHWYRQKSGTSPKRWVYDTSKLASGVPARFSGSGSGTSYSLTISSMEAEDAATYYCQQWVSNPLTFGAGTKLELK
notes: Murine hybridoma antibody; also called B7H3 hybridoma monoclonal antibody 2A9
B7: the binding result is given as “binds”.

B8: 13A2 (antibody, mouse IgG2b, V domains shown)
VH: EVQLQQSGPELVKPGASVKISCKTSGYTFTEYVMHWVKQRHGQSLEWIGGINPNTGGTTYNQKFEGKATLTVDKSSSSAYMEFRSLTSEDSAVYYCARRMPFGISAMDYWGQGTSVTVSS
VL: B7 VL with Y35F, R36Q, V47I, Y48S, D49E, E78G, Q88H, V91I, N93Y, L95P
notes: Murine hybridoma antibody; also called B7H3 hybridoma monoclonal antibody 13A2
As to B8, the binding entry was “binds”.

B9: 9C8 (antibody, mouse IgG1, V domains shown)
VH: EVQLQQSGPELVKPGASVKISCKTSGYTFTEYTIHWVKQSHGKSLEWIGGINPNSGGTTYNLKFKGKATLTVDKSSSTVYMELRSLTSEDSAVYYCARKEGFFTTDYWGQGTTLTVSS
VL: QTVLTQSPAIMSASPGEKVTMTCSASSSLSYIHWYRQKSGTSPKRWIYDTSNLATGVPVRFSGSGSGTSYSLTISSMEAEDAATYYCQQWHYNPPTFGGGTKLEIK
notes: Murine hybridoma antibody; also called B7H3 hybridoma monoclonal antibody 9C8
Regarding B9, the binding entry was “binds”.

B10: 2E10 (antibody, mouse IgG2a, V domains shown)
VH: EVQLQQSGPELVKPGASVKISCKTSGYTFTEYTMHWVKQSHGKNLEWIGGINTDNGGTTYSQKFKDKATLTVDRSSSTAYMVLRSLTSEDSAVYYCARSFNNYGPAWFAYWGQGALVTVSA
VL: DIVMTQSHKFMSTSIGDRVSITCKASQDVRSAVAWYQQRPGQSPKLLIYWASTRHTGVPARFTGSGSGTDYTLTINNVQSEDLAGYFCQQYSSYFTFGGGTKLEKK
notes: Murine hybridoma antibody; also called B7H3 hybridoma monoclonal antibody 2E10
Turning to B10, the binding entry is reported as “binds”.

B11: 14B3 (antibody, mouse IgG1, V domains shown)
VH: QVQLQQSGPELVRPGVSVKISCKGSGYTFTDHAIHWVKQSHAKSLEWIGVINTYSGNTNFNQKLKGKATMTVDKSSSTAYMELARLTSEDSAIYYCARGAHSSGYPYWYFDVWGAGTTVTVSS
VL: QIVLSQSPAILSASAGEKVTMTCRASSSVSYMHWYQQKPGSSPKPWIYATSNLASGVPARFSGSGSGTSYSLTISRVEAEDAATYYCQQWSTNPFTFGSGTKLEMK
notes: Murine hybridoma antibody; also called B7H3 hybridoma monoclonal antibody 14B3
Consider B11, for which the binding entry was “binds”.

B12: 2F7 (antibody, mouse IgG2b, V domains shown)
VH: QVQLQQPGAELVKPGASVKLSCKASGYTFTSYYIYWLKQRPGQGLEWIGGIKPSNGDTNFNAKFMNKATLTVDKSSSTAYMQLSSLTSEDSAIYYCTRFFYGSPYDFDVWGAGTTVTVSS
VL: NIVMTQSPKSMSMAVGERVTLTCKASENVDTHVSWYQQKPEQSPTLLMYGTSNRFTGVPDRFTGSGSATDFTLTISSVQAEDLADYHCGQSYRYPYTFGGGTKLEIK
notes: Murine hybridoma antibody; also called B7H3 hybridoma monoclonal antibody 2F7
Take B12: the binding entry is on record as “binds”.

Source of the values: patent US20250276082A1 (INNOLAKE BIOPHARMA HANGZHOU, published 2025).
